This is one part of the list. Most values lie at the level of the controls, where differences are scatter.

The chains behind the UniProt entries cited, without tags or fusion partners. Where a name states a change or a piece, a line headed by the entry shows the natural chain unless it says otherwise.
UniProt Q02447: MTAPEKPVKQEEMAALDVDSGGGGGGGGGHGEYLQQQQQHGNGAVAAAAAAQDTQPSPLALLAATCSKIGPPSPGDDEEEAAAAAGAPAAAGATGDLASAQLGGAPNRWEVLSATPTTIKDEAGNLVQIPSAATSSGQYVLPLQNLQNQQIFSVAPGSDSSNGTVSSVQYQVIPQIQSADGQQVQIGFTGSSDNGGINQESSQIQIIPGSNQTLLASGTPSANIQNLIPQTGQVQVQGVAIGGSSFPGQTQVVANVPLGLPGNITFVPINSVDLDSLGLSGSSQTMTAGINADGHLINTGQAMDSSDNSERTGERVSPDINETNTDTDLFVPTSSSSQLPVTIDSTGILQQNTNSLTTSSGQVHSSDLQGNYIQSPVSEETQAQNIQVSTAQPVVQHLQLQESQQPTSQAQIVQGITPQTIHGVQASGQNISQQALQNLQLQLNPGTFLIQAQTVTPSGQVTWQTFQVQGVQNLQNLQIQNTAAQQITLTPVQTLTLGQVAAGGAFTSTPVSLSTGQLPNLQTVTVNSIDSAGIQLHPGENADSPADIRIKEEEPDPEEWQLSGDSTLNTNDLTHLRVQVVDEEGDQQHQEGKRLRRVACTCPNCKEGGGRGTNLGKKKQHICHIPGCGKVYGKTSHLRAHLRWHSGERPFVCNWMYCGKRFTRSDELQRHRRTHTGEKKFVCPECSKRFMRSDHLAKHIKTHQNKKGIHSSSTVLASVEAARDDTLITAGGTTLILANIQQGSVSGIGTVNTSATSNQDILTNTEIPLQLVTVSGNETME
UniProt Q01081: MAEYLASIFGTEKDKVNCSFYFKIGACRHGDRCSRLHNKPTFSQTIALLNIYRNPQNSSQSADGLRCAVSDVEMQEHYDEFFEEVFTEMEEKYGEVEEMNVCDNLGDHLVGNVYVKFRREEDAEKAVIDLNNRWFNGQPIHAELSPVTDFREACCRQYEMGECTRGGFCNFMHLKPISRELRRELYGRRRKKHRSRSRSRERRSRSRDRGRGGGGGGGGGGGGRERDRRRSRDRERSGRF
UniProt Q07352: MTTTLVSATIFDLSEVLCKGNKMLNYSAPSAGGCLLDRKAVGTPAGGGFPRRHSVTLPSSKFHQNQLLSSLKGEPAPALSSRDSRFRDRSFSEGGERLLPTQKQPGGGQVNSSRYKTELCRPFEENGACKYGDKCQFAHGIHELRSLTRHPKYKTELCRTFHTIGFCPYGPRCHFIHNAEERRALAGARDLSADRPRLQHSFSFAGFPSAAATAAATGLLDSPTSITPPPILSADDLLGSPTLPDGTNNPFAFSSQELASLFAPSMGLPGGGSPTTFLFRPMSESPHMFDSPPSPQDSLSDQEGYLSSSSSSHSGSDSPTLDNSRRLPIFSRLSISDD
UniProt Q00013: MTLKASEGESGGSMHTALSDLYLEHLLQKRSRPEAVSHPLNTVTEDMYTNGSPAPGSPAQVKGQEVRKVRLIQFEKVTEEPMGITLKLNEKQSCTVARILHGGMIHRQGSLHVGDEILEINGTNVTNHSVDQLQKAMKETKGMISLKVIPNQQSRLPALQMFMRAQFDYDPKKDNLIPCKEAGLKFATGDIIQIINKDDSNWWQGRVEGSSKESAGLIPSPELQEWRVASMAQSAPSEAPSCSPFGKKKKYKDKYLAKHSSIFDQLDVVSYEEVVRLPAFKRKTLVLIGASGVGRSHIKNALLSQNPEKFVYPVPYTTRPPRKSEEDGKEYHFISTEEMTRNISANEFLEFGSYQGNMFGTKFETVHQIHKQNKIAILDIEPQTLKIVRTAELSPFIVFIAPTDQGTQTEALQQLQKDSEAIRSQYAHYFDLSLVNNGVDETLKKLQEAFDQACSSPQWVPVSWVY
UniProt Q13042, whole entry: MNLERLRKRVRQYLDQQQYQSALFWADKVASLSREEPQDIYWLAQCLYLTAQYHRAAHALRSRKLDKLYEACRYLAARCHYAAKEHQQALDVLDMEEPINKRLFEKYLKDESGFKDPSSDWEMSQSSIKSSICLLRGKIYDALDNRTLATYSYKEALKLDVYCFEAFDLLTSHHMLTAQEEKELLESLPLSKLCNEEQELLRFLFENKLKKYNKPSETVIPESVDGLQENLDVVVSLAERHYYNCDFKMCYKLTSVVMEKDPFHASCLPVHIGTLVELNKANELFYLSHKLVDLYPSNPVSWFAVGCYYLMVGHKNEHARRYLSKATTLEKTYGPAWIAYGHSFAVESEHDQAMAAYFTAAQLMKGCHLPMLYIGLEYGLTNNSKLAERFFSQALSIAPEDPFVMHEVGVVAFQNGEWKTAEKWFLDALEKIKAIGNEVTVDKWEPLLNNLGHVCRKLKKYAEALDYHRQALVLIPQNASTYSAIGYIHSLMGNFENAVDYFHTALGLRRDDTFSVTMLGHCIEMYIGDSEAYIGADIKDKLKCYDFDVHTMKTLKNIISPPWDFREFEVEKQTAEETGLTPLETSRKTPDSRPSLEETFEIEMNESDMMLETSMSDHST
UniProt Q08945, whole entry: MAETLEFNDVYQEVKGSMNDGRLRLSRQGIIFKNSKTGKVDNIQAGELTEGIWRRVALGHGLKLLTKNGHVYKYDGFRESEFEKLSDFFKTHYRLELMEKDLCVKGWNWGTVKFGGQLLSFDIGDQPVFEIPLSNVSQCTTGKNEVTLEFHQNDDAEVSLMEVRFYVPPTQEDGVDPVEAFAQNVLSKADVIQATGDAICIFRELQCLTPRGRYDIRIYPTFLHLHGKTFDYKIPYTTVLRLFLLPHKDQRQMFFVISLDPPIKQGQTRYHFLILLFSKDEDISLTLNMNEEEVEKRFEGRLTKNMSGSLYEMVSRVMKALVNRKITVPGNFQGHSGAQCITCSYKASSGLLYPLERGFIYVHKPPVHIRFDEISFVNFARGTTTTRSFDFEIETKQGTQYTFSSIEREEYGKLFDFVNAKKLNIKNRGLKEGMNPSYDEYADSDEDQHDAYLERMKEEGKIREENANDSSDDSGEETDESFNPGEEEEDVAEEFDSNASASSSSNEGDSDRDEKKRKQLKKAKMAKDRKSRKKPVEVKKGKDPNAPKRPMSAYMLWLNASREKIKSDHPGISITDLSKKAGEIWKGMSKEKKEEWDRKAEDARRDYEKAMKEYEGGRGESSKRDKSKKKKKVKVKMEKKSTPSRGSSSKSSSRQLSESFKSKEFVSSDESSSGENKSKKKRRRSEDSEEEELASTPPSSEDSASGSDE
UniProt Q12788: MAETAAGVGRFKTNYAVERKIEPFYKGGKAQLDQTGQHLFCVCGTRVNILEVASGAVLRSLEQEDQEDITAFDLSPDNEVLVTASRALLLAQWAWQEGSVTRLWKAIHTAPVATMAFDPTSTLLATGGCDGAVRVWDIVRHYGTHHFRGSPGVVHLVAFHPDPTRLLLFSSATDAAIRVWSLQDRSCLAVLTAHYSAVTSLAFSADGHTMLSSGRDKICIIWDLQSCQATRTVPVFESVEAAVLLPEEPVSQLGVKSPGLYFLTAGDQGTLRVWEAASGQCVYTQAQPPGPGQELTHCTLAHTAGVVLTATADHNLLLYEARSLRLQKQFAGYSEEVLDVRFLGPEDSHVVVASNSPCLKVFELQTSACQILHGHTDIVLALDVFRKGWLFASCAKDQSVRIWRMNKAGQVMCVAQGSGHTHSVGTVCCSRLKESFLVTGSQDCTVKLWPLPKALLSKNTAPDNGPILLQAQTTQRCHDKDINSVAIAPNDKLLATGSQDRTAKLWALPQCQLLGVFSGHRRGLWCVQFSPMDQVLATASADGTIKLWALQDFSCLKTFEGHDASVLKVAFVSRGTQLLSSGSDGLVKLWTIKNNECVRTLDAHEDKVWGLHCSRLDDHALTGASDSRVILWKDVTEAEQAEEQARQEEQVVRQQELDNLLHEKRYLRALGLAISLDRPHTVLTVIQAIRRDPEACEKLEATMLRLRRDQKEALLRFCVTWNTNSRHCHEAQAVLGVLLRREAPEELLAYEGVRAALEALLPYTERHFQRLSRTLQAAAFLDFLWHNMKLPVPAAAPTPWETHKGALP
UniProt Q04446: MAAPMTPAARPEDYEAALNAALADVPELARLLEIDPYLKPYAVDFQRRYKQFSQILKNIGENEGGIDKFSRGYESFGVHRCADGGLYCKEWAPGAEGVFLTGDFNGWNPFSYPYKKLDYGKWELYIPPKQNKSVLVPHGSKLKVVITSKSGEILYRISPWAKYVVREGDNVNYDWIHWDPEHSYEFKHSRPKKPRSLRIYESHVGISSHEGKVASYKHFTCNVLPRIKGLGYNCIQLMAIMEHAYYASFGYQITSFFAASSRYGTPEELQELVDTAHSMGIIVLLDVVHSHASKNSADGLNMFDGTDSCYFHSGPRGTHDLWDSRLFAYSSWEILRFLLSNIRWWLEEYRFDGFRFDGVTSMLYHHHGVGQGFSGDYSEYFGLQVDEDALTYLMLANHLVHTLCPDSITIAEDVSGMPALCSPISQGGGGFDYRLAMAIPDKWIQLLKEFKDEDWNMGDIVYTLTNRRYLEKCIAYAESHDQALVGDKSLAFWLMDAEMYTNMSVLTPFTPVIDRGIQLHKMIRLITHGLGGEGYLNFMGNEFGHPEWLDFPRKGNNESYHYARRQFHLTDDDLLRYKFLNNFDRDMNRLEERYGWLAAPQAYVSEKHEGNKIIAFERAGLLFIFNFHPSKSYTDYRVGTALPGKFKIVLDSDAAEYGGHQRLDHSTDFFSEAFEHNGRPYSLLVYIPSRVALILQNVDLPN
UniProt P98153: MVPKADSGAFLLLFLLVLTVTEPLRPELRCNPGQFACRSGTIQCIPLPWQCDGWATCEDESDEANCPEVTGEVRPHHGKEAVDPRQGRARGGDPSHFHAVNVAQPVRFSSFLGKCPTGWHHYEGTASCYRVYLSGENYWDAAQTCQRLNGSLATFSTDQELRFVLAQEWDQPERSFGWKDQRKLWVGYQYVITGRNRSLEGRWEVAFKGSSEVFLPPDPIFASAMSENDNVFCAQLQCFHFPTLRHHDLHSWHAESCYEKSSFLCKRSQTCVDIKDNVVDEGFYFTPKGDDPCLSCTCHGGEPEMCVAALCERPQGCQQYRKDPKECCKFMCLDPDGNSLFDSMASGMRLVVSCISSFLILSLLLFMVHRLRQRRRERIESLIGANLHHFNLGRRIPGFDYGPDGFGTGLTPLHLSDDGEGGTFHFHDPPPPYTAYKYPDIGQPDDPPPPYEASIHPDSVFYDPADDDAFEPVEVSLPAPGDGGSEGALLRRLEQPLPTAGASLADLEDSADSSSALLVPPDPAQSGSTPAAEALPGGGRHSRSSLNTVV
UniProt Q07617: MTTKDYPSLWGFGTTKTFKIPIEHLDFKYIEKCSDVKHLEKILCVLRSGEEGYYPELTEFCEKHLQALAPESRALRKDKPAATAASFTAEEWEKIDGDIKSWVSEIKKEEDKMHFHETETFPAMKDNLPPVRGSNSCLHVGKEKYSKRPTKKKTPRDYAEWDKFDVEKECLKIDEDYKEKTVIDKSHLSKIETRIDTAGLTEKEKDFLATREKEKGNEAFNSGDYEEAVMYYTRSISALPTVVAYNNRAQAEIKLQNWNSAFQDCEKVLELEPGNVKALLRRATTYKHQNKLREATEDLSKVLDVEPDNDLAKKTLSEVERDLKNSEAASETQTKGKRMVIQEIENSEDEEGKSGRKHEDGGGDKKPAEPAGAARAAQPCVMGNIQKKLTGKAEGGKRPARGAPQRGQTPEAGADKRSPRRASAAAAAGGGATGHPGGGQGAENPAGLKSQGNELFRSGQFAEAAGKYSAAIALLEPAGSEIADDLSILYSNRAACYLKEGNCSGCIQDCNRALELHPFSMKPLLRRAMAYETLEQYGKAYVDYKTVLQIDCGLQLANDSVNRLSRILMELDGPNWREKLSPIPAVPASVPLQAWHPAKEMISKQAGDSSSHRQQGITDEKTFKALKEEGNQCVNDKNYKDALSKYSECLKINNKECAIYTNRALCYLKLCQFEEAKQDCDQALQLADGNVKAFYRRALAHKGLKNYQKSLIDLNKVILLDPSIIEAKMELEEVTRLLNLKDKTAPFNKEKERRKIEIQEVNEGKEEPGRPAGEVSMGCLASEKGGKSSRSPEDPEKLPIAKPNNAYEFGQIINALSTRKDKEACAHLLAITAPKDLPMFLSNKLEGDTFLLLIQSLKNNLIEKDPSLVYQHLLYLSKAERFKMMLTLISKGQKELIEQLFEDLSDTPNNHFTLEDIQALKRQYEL
UniProt Q07021: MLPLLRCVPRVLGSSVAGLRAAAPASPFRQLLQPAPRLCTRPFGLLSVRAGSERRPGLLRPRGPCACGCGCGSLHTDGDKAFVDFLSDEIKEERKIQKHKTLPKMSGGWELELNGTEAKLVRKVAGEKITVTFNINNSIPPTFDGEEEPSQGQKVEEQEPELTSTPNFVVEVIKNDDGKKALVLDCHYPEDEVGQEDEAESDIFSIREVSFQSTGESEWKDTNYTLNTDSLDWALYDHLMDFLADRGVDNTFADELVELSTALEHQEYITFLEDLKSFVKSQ
UniProt Q06055: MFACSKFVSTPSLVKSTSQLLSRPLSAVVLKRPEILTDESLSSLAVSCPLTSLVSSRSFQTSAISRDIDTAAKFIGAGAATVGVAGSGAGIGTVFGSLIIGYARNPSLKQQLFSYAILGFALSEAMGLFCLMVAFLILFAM

Compound in this assay: Cc1nc(Nc2ncc(C(=O)Nc3c(C)cccc3Cl)s2)cc(N2CCN(CCO)CC2)n1 [dasatinib]
Briefly: log2 fold change of tryptic peptide abundance, ligand vs vehicle (limited proteolysis) (log2 ratio); higher = more trypsin-susceptible (destabilized). The conditions noted are these: ligand concentration: 5 uM; sample: K562 cleared lysate.
On to “HSF2 (peptide sequence: HAQQQQVIR, peptide start residue: 168) (UniProt Q03933)”, for which the log2 fold change was -0.559.

In the case of “MRPS9 (peptide sequence: KKPGQEGAR, peptide start residue: 380) (UniProt P82933)”, the log2 fold change is -0.292.

As to “FOXK2 (peptide sequence: EKQEASESPVK, peptide start residue: 163) (UniProt Q01167)”, the log2 fold change was -0.488.

In the case of “SP3 (peptide sequence: RVACTCPNCK, peptide start residue: 597) (UniProt Q02447)”, the log2 fold change was -0.506.

In the case of “FOXK1 (peptide sequence: IHIPEPDLR, peptide start residue: 227) (UniProt P85037)”, the log2 fold change is -0.084.

As to “TAGLN (peptide sequence: GASQAGMTGYGR, peptide start residue: 184) (UniProt Q01995)”, the log2 fold change amounted to 0.124.

Take “LSM11 (peptide sequence: LMVAKEEGDGAAGAGR, peptide start residue: 116) (UniProt P83369)”: the log2 fold change was found to be 0.258.

Take “U2AF1 (peptide sequence: REEDAEKAVIDLNNR, peptide start residue: 119) (UniProt Q01081)”: the log2 fold change was -0.148.

For the target “ZNF816 (peptide sequence: NGHEAPMTK, peptide start residue: 123) (UniProt Q0VGE8)”, the log2 fold change is -0.325.

Consider “KLC1 (peptide sequence: DDESNLVEEKSNMIR, peptide start residue: 59) (UniProt Q07866)”, for which the log2 fold change is -0.713.

With “ZFP36L1 (peptide sequence: TFHTIGFCPYGPR, peptide start residue: 199) (UniProt Q07352)”, the log2 fold change is -0.0993.

Regarding “DMTN (peptide sequence: TSLPHFHHPETSRPDSNIYK, peptide start residue: 123) (UniProt Q08495)”, the log2 fold change came to 0.246.

Regarding “C13ORF37 (peptide sequence: ETMDVLLEISR, peptide start residue: 23) (UniProt Q08AG7)”, the log2 fold change was 0.0255.

“DAB2 (peptide sequence: KGPEKTDEYLLAR, peptide start residue: 30) (UniProt P98082)”: the log2 fold change was -0.592.

With “TLE1 (peptide sequence: SPMVGFDPPPHMR, peptide start residue: 416) (UniProt Q04724)”, the log2 fold change is -0.0576.

Regarding “OCRL (peptide sequence: VQGDWIR, peptide start residue: 86) (UniProt Q01968)”, the log2 fold change is 0.252.

With “MPP1 (peptide sequence: LPALQMFMR, peptide start residue: 156) (UniProt Q00013)”, the log2 fold change is -0.103.

Turning to “NEXN (peptide sequence: EAENFHEEDDVDVRPAR, peptide start residue: 485) (UniProt Q0ZGT2)”, the log2 fold change was 0.301.

As for “CDC16 (peptide sequence: LKCYDFDVHTMK, peptide start residue: 542) (UniProt Q13042)”, the log2 fold change is -0.265.

As for “SET (peptide sequence: LNEQASEEILKVEQK, peptide start residue: 58) (UniProt Q01105)”, the log2 fold change turned out to be 0.268.

For “GFPT1 (peptide sequence: DKKGSCNLSR, peptide start residue: 249) (UniProt Q06210)”, the log2 fold change amounted to 1.05.

Take “HTD2 (peptide sequence: TVMEGWVK, peptide start residue: 152) (UniProt P86397)”: the log2 fold change stood at 0.285.

Take “SSRP1 (peptide sequence: SKEFVSSDESSSGENK, peptide start residue: 662) (UniProt Q08945)”: the log2 fold change turned out to be 0.499.

For the target “TBL3 (peptide sequence: REAPEELLAYEGVR, peptide start residue: 741) (UniProt Q12788)”, the log2 fold change worked out at 0.392.

Take “UniProt P98168 (peptide sequence: SSLYIHSK, peptide start residue: 433)”: the log2 fold change was -0.0825.

“UniProt P82970 (peptide sequence: LSAMLVPVTPEVKPK, peptide start residue: 23)”: the log2 fold change was found to be 0.068.

Regarding “EWSR1 (peptide sequence: TGQPMIHIYLDK, peptide start residue: 393) (UniProt Q01844)”, the log2 fold change came out at 0.293.

With “TP53BP1 (peptide sequence: GNLLHFPSSQGEEEK, peptide start residue: 1060) (UniProt Q12888)”, the log2 fold change was 0.836.

Regarding “GBE1 (peptide sequence: GNNESYHYAR, peptide start residue: 555) (UniProt Q04446)”, the log2 fold change was -0.124.

For the target “RAD51 (peptide sequence: LVPMGFTTATEFHQR, peptide start residue: 81) (UniProt Q06609)”, the log2 fold change came to 0.0792.

On to “AKAP12 (peptide sequence: AITPQAQEELQKQER, peptide start residue: 1758) (UniProt Q02952)”, for which the log2 fold change was -0.369.

For the target “DGCR2 (peptide sequence: CNPGQFACR, peptide start residue: 30) (UniProt P98153)”, the log2 fold change turned out to be 0.197.

In the case of “PCTK3 (peptide sequence: LEHEEGAPCTAIR, peptide start residue: 198) (UniProt Q07002)”, the log2 fold change was -0.0731.

Regarding “SPAG1 (peptide sequence: KDKEACAHLLAITAPK, peptide start residue: 820) (UniProt Q07617)”, the log2 fold change was 0.466.

Consider “C1QBP (peptide sequence: AFVDFLSDEIKEER, peptide start residue: 81) (UniProt Q07021)”, for which the log2 fold change amounted to 0.0676.

For the target “UniProt Q06055 (peptide sequence: STSQLLSRPLSAVVLK, peptide start residue: 16)”, the log2 fold change was 0.615.

These data come from the supplement of paper PMC12819154, “High-throughput peptide-centric local stability assay extends protein–ligand identification to membrane proteins, tissues and bacteria” (Nature Structural & Molecular Biology, 2025).
